According to article doi:10.1101/2023.04.01.535202, “Three small partner proteins facilitate the type VII-dependent secretion export of an antibacterial nuclease” (bioRxiv, 2023):
Results are given in words; binding and its absence hold for the method and conditions named. Binding seen in cells or lysates may run through a third protein. Some entries that bind do so weakly or less than the wild type.

Sequences of proteins named here, by UniProt entry; tags and fusion partners are left off. Residues count along the entry.
UniProt Q2G179, residues 1-477: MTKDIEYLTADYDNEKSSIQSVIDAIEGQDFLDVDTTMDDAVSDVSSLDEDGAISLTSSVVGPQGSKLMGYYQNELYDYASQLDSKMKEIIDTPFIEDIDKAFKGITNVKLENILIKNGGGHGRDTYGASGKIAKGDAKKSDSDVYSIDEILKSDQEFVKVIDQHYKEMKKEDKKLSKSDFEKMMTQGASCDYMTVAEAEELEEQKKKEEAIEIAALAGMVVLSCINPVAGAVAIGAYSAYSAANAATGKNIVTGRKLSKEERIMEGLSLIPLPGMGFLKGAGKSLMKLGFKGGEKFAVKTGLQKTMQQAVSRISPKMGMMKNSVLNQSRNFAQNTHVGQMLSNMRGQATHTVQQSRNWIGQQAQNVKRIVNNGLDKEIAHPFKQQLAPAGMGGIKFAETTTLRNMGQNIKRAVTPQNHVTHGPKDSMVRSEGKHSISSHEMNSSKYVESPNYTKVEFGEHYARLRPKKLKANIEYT

B1: EsxB (protein, UniProt Q2G182 1-104)
chain: MGGYKGIKADGGKVDQAKQLAAKTAKDIEACQKQTQQLAEYIEGSDWEGQFANKVKDVLLIMAKFQEELVQPMADHQKAIDNLSQNLAKYDTLSIKQGLDRVNP
B2: EsaE (protein, UniProt Q2G181 1-224)
chain: MKDVKRIDYFSYEELTILGGSKLPLVNFELFDPSNFEEAKAALIEKELVTENDKLTDAGFKVATLVREYISAIVNIRINDMYFAPFSYEKDEYILLSRFKNNGFQIRIINKDIAWWSIVQSYPLLMRQEKSNDWDFKQIDDETLENLNNESIDTIGRVLEIEIYNHQGDPQQSLYNIYEQNDLLFIRYPLKDKVLNVHIGVINTFIRELFGFDTDENHINKAEE

Target: EsaD_(1-477)-his (Staphylococcus aureus) (UniProt Q2G179)
Test: pull-down + SEC

Binder | binding
B1 | binds
B2 | binds
